Laboratory results from the supplement of paper PMC6411743.
± gives the standard deviation of the averaged measurements. The list shows a part of the results, in another mix than the full data.

Sequences of proteins named here, by UniProt entry; tags and fusion partners are left off. A change or cut given only in a name is not applied to a line headed by its entry.
UniProt P61604, whole entry: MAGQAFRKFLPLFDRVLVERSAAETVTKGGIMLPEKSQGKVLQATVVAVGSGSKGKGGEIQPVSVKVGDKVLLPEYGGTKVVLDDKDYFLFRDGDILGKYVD
UniProt P55957: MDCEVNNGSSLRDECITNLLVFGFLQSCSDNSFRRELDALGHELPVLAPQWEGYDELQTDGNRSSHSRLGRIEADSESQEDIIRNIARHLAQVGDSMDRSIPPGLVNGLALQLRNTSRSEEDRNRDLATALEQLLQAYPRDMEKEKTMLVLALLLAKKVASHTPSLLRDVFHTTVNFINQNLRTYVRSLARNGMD
UniProt P62879, whole entry: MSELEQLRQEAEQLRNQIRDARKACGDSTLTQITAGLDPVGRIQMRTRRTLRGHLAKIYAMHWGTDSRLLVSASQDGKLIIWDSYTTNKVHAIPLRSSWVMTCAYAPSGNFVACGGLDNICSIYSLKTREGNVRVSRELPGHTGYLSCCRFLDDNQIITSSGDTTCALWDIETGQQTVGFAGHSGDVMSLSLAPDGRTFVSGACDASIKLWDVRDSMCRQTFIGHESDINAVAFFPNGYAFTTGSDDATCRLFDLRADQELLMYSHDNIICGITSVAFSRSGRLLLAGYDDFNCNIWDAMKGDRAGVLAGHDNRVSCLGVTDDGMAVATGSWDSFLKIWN
UniProt P55060: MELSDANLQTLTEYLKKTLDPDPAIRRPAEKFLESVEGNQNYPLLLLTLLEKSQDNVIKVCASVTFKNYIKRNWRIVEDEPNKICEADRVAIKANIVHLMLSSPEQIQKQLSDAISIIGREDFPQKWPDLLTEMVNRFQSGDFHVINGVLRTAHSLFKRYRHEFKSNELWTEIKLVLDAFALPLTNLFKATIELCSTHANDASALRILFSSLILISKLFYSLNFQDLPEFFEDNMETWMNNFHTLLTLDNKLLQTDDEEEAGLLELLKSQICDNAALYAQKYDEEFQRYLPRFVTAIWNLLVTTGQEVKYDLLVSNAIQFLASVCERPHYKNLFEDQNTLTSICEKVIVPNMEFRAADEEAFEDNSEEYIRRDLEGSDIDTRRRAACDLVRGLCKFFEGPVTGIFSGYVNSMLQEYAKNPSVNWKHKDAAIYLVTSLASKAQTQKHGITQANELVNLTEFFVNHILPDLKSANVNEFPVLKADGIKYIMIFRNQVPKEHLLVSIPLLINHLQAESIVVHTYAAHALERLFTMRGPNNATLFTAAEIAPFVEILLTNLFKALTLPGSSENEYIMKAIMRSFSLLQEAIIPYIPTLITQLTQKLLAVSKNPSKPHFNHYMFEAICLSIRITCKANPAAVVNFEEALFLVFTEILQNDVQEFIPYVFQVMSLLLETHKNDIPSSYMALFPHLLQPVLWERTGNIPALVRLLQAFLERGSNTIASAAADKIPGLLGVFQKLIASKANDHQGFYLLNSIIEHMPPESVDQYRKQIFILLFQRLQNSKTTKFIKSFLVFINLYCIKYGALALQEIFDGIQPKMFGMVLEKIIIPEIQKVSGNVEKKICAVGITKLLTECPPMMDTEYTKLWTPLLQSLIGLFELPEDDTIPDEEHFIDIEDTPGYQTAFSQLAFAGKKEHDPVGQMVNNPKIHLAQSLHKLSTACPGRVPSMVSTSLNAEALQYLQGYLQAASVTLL
UniProt P55199: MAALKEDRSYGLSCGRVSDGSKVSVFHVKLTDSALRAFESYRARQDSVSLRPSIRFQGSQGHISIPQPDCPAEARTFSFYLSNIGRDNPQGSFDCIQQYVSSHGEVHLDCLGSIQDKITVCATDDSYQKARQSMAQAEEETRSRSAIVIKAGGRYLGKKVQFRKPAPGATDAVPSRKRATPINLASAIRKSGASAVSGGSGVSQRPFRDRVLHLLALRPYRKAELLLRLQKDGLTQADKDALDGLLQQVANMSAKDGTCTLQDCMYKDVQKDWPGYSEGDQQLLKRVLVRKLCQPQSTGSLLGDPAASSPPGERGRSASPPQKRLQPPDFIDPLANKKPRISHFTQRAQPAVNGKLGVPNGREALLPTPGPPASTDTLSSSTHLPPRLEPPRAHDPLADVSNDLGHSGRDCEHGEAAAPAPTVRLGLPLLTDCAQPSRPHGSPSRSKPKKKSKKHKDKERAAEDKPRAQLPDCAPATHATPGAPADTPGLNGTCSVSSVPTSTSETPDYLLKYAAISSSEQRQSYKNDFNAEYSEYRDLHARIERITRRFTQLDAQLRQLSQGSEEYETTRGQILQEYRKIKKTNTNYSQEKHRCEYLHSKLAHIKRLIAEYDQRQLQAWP
UniProt P63167, whole entry: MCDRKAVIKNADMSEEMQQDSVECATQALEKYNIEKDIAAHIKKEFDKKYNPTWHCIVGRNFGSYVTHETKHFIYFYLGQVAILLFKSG
UniProt P56377: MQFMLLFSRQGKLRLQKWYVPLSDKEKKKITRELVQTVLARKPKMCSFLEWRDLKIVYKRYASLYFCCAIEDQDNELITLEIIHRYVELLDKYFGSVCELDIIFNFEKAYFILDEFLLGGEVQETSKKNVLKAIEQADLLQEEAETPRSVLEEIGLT
UniProt P54278: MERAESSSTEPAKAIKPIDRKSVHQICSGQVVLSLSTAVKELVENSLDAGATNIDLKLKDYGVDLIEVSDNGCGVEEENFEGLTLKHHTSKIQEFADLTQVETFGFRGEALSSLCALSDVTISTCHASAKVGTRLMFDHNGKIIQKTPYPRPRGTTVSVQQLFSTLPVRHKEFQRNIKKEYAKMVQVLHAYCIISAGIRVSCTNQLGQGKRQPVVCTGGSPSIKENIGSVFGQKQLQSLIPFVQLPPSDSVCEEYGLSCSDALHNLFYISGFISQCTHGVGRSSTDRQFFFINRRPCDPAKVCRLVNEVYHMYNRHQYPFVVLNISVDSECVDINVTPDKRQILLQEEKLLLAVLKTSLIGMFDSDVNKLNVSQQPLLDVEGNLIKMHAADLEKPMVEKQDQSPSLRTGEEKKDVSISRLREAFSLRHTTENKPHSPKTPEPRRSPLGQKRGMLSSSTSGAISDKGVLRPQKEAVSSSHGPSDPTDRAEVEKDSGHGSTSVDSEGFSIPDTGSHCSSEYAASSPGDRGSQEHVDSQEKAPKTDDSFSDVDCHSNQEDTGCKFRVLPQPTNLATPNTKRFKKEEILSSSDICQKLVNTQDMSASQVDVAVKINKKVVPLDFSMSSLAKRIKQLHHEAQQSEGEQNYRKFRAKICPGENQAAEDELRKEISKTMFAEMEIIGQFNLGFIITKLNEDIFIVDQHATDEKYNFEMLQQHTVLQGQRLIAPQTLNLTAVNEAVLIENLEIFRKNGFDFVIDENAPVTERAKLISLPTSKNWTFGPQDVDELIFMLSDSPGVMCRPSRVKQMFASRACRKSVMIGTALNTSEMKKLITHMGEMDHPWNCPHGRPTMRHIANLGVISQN
UniProt P62491: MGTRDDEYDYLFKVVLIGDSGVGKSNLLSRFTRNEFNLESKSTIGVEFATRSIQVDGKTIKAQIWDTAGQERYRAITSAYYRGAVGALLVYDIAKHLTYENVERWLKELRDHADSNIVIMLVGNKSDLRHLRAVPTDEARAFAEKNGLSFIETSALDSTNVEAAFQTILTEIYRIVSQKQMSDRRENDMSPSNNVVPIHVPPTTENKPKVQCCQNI
UniProt P53602: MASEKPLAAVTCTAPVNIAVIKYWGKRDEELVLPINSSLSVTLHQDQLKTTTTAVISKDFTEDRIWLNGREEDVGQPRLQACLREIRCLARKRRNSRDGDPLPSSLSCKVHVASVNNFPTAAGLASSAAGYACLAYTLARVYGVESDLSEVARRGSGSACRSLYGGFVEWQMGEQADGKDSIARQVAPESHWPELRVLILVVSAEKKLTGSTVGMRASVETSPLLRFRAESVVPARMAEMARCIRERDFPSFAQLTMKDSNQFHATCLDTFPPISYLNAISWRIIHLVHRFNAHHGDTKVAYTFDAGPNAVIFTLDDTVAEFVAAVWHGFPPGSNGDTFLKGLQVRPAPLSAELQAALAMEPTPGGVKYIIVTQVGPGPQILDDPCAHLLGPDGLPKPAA
UniProt P56524: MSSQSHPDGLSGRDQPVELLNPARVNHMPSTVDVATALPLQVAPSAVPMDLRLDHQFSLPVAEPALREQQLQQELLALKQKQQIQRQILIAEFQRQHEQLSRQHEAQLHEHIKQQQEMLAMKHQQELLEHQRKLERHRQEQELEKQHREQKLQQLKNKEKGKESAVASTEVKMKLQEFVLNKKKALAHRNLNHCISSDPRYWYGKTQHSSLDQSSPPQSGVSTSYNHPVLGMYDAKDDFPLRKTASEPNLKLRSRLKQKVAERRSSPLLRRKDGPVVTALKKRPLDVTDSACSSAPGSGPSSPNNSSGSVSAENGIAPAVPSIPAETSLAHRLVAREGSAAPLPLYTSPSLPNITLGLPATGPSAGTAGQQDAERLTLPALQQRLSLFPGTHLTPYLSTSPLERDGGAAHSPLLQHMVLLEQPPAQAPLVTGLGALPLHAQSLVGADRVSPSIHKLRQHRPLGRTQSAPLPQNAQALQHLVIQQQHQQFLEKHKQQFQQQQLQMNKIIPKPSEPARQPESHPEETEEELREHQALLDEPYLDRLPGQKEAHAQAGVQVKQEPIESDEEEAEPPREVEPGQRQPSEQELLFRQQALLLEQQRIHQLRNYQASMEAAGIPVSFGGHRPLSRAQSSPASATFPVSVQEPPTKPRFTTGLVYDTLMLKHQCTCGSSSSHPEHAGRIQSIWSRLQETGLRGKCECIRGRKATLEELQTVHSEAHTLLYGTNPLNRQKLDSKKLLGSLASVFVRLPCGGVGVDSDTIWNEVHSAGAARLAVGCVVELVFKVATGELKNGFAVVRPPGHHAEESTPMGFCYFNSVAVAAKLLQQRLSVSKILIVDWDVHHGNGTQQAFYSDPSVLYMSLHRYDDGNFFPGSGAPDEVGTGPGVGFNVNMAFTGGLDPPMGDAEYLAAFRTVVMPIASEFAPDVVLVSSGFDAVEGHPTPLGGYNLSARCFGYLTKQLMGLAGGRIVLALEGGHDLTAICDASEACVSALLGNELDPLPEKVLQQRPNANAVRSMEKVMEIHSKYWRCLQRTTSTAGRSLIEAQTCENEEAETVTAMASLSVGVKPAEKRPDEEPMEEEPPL
UniProt P68402: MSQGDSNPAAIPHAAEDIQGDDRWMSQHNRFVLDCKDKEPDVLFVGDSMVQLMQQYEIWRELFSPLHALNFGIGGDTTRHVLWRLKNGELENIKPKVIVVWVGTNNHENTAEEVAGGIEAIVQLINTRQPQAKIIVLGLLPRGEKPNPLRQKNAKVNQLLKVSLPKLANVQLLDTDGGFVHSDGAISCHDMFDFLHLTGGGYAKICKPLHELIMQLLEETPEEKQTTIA
UniProt P62314, whole entry: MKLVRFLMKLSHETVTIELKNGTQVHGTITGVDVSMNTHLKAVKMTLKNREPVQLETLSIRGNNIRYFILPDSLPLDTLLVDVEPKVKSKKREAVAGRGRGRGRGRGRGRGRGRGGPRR
UniProt P56199, whole entry: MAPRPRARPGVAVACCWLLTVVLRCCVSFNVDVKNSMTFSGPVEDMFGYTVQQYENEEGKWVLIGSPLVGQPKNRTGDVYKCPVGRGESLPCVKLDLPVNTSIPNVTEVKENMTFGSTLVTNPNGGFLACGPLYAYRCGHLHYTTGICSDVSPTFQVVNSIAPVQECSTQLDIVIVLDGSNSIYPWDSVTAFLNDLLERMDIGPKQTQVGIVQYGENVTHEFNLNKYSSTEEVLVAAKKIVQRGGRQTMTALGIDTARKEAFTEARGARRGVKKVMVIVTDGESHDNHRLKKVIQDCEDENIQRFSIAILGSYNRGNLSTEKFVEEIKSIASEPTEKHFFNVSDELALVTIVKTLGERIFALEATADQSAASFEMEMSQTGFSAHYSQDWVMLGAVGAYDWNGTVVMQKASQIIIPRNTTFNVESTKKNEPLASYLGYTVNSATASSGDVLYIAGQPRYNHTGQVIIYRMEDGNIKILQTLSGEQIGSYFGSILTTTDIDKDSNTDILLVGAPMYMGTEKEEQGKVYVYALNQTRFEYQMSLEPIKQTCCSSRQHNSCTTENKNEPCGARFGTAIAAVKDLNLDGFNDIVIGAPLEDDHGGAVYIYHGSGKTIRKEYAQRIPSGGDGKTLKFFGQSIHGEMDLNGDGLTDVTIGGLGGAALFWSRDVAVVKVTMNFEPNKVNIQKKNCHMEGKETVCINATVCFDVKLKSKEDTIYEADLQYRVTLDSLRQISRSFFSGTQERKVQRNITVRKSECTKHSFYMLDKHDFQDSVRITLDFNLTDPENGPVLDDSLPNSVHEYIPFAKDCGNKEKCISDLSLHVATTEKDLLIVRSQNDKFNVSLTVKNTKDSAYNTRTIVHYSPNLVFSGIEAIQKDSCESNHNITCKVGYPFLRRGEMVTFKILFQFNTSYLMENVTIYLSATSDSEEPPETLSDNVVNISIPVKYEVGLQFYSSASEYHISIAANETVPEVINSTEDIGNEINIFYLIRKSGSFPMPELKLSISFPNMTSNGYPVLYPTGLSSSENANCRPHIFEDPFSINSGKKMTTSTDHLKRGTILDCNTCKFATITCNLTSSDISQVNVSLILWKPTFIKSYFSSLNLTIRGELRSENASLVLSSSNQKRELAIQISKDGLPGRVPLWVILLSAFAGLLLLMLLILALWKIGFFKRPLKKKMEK

Compound: Nc1ncnc2c1ncn2[C@@H]1O[C@H](COP(=O)(O)OP(=O)(O)OP(=O)(O)O)[C@@H](O)[C@H]1O [adenosine triphosphate]
Test: NP40-soluble protein abundance relative to vehicle (solubility fold change) (ratio); higher = more soluble protein in presence of ATP
In short: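 Data come from three independent experiments in which Dounce-homogenised Jurkat crude lysate was treated at eight concentrations from 0.1 to 10 mM. Treatment ran 10 min at room temperature and then 3 min at 37 °C, after which 0.8% NP40 and benzonase were added for 60 min at 4 °C before ultracentrifugation. The supernatant underwent TMT labelling and LC-MS/MS, and vsn-normalised intensities were expressed as fold change against the detergent-processed vehicle in each replicate.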

Target	NP40-soluble protein abundance (concentration: 1mM)	NP40-soluble protein abundance (concentration: 2mM)	NP40-soluble protein abundance (concentration: 4mM)	NP40-soluble protein abundance (concentration: 6mM)	NP40-soluble protein abundance (concentration: 8mM)	NP40-soluble protein abundance (concentration: 10mM)
NCS1 (UniProt P62166)	1.11 ± 0.047	1.09 ± 0.1	1.17 ± 0.1	1.07 ± 0.062	1.0522 ± 0.00087	1.1 ± 0.035
UniProt P53990 and related entries	1.07 ± 0.062	1.09 ± 0.055	1.06 ± 0.07	1.09 ± 0.063	1.08 ± 0.076	1.06 ± 0.03
UniProt P61604 and related entries	0.887 ± 0.13	0.857 ± 0.059	0.852 ± 0.042	0.905 ± 0.079	0.832 ± 0.019	0.832 ± 0.044
CASP9 (UniProt P55211)	0.992 ± 0.058	1.01 ± 0.028	1.01 ± 0.011	0.945 ± 0.074	1 ± 0.051	0.972 ± 0.055
NOP14 (UniProt P78316)	0.931 ± 0.035	0.912 ± 0.03	0.893 ± 0.015	0.923 ± 0.036	0.871 ± 0.017	0.898 ± 0.037
GSTO1 (UniProt P78417)	0.956 ± 0.08	0.938 ± 0.058	0.897 ± 0.055	0.901 ± 0.088	0.914 ± 0.04	0.879 ± 0.052
UniProt P61221	0.994 ± 0.07	0.971 ± 0.074	0.951 ± 0.053	0.935 ± 0.093	0.999 ± 0.051	0.976 ± 0.064
UniProt P61026	0.935 ± 0.044	0.914 ± 0.036	0.901 ± 0.033	0.893 ± 0.069	0.8817 ± 0.0051	0.903 ± 0.015
UniProt P55957 and related entries	1.02 ± 0.12	0.97 ± 0.025	0.995 ± 0.047	1 ± 0.12	0.99 ± 0.044	0.865 ± 0.082
DYNLT1 (UniProt P63172)	0.972 ± 0.065	1.02 ± 0.045	0.918 ± 0.047	1.03 ± 0.16	1 ± 0.13	0.985 ± 0.09
ACTR3 (UniProt P61158)	0.952 ± 0.17	1.14 ± 0.24	1.02 ± 0.1	0.948 ± 0.021	1.09 ± 0.11	1 ± 0.037
UniProt P62633 and related entries	1.01 ± 0.021	0.979 ± 0.047	0.99 ± 0.028	1.01 ± 0.028	1.01 ± 0.044	0.965 ± 0.059
UniProt P62330	1.02 ± 0.19	1.04 ± 0.16	1.01 ± 0.084	0.909 ± 0.19	1.07 ± 0.11	1.05 ± 0.11
P68032 and related entries (UniProt P68133+P68032)	1.136 ± 0.0035	1.09 ± 0.038	1.07 ± 0.049	1.11 ± 0.058	1.11 ± 0.083	1.09 ± 0.014
UniProt P62851	0.924 ± 0.19	0.814 ± 0.14	0.799 ± 0.2	0.79 ± 0.23	0.555 ± 0.1	0.797 ± 0.21
UniProt P61019 and related entries	1.04 ± 0.1	1.02 ± 0.073	0.976 ± 0.075	0.986 ± 0.07	0.964 ± 0.068	0.965 ± 0.065
UniProt P55771	0.83 ± 0.17	0.862 ± 0.15	0.838 ± 0.088	0.916 ± 0.15	0.909 ± 0.17	0.877 ± 0.17
CRADD (UniProt P78560)	1.01 ± 0.11	1 ± 0.011	0.99 ± 0.052	0.902 ± 0.12	0.963 ± 0.12	0.877 ± 0.069
UniProt P63000 and related entries	0.984 ± 0.045	0.995 ± 0.075	0.962 ± 0.094	0.937 ± 0.075	0.994 ± 0.1	0.977 ± 0.041
FOXK1 (UniProt P85037)	0.997 ± 0.072	1 ± 0.061	1.01 ± 0.078	1.03 ± 0.093	0.972 ± 0.07	1 ± 0.068

An excerpt of these results, in markdown.

| Target | NP40-soluble protein abundance (concentration: 1mM) | NP40-soluble protein abundance (concentration: 2mM) | NP40-soluble protein abundance (concentration: 4mM) | NP40-soluble protein abundance (concentration: 6mM) | NP40-soluble protein abundance (concentration: 8mM) | NP40-soluble protein abundance (concentration: 10mM) |
| --- | --- | --- | --- | --- | --- | --- |
| ACTR3 (UniProt P61158) | 0.952 ± 0.17 | 1.14 ± 0.24 | 1.02 ± 0.1 | 0.948 ± 0.021 | 1.09 ± 0.11 | 1 ± 0.037 |
| UniProt P62633 and related entries | 1.01 ± 0.021 | 0.979 ± 0.047 | 0.99 ± 0.028 | 1.01 ± 0.028 | 1.01 ± 0.044 | 0.965 ± 0.059 |
| UniProt P62330 | 1.02 ± 0.19 | 1.04 ± 0.16 | 1.01 ± 0.084 | 0.909 ± 0.19 | 1.07 ± 0.11 | 1.05 ± 0.11 |

(listing goes on)

Target	NP40-soluble protein abundance (concentration: 1mM)	NP40-soluble protein abundance (concentration: 2mM)	NP40-soluble protein abundance (concentration: 4mM)	NP40-soluble protein abundance (concentration: 6mM)	NP40-soluble protein abundance (concentration: 8mM)	NP40-soluble protein abundance (concentration: 10mM)
GMFB (UniProt P60983)	0.978 ± 0.11	0.976 ± 0.049	1.01 ± 0.07	0.984 ± 0.052	0.947 ± 0.045	0.939 ± 0.032
UniProt P63146	1.05 ± 0.062	1.03 ± 0.043	0.976 ± 0.031	1.03 ± 0.093	1.04 ± 0.069	0.976 ± 0.012
UniProt P62879	0.99 ± 0.07	0.999 ± 0.07	0.974 ± 0.022	0.909 ± 0.031	0.962 ± 0.022	0.96 ± 0.033
UniProt P55060 and related entries	0.916 ± 0.046	0.942 ± 0.066	0.916 ± 0.041	0.872 ± 0.057	0.885 ± 0.035	0.912 ± 0.037
STX17 (UniProt P56962)	0.992 ± 0.012	0.9767 ± 0.0076	0.963 ± 0.027	0.977 ± 0.041	0.951 ± 0.028	0.971 ± 0.019
ELL (UniProt P55199)	0.972 ± 0.028	0.997 ± 0.043	1.02 ± 0.038	0.983 ± 0.062	0.989 ± 0.055	1.04 ± 0.059
UniProt P55899 and related entries	0.958 ± 0.096	0.975 ± 0.032	1.02 ± 0.078	1.03 ± 0.093	0.938 ± 0.037	0.93 ± 0.081
UniProt P62191	0.9649 ± 0.0081	0.88 ± 0.045	0.858 ± 0.02	0.891 ± 0.095	0.9 ± 0.048	0.873 ± 0.047
UniProt P63167	1.08 ± 0.19	1.03 ± 0.061	0.98 ± 0.053	1.11 ± 0.11	1.04 ± 0.03	0.968 ± 0.074
AP1S2 (UniProt P56377)	0.936 ± 0.082	0.953 ± 0.052	1.02 ± 0.056	1 ± 0.16	0.968 ± 0.055	0.975 ± 0.061
PMS2 (UniProt P54278)	1.18 ± 0.04	1.15 ± 0.035	1.21 ± 0.047	1.15 ± 0.011	1.17 ± 0.045	1.17 ± 0.042
SEC13 (UniProt P55735)	1.03 ± 0.11	1 ± 0.081	1.01 ± 0.062	0.992 ± 0.057	1.05 ± 0.04	1.02 ± 0.045
GRB2 (UniProt P62993)	0.991 ± 0.058	0.962 ± 0.059	0.946 ± 0.06	0.947 ± 0.072	0.968 ± 0.067	0.933 ± 0.053
UniProt P62491	1.28 ± 0.088	1.22 ± 0.062	1.15 ± 0.11	1.35 ± 0.17	1.03 ± 0.096	1.14 ± 0.08
MRPS6 (UniProt P82932)	0.931 ± 0.12	0.873 ± 0.092	0.81 ± 0.088	0.838 ± 0.22	0.856 ± 0.13	0.769 ± 0.13
MRPS15 (UniProt P82914)	0.947 ± 0.083	0.894 ± 0.096	0.884 ± 0.11	0.91 ± 0.24	0.897 ± 0.16	0.842 ± 0.11
UniProt P84103 and related entries	1.28 ± 0.1	1.29 ± 0.072	1.3 ± 0.11	1.45 ± 0.089	1.397 ± 0.0027	1.39 ± 0.089
UniProt P60763	0.975 ± 0.042	0.966 ± 0.039	1.02 ± 0.094	0.981 ± 0.056	0.985 ± 0.11	0.966 ± 0.033
UniProt P56937 and related entries	0.979 ± 0.081	1.01 ± 0.094	0.986 ± 0.069	0.954 ± 0.13	0.985 ± 0.049	1 ± 0.082
MVD (UniProt P53602)	0.965 ± 0.065	1 ± 0.058	0.955 ± 0.027	0.911 ± 0.068	0.951 ± 0.017	0.945 ± 0.032

Target	NP40-soluble protein abundance (concentration: 1mM)	NP40-soluble protein abundance (concentration: 2mM)	NP40-soluble protein abundance (concentration: 4mM)	NP40-soluble protein abundance (concentration: 6mM)	NP40-soluble protein abundance (concentration: 8mM)	NP40-soluble protein abundance (concentration: 10mM)
DCD (UniProt P81605)	1.22 ± 0.16	1.3 ± 0.23	1.04 ± 0.015	1.16 ± 0.14	0.958 ± 0.19	0.892 ± 0.34
UniProt P61024 and related entries	0.952 ± 0.087	0.94 ± 0.084	0.931 ± 0.082	0.966 ± 0.097	0.914 ± 0.06	0.946 ± 0.11
HDAC4 (UniProt P56524)	0.975 ± 0.019	0.979 ± 0.086	0.974 ± 0.015	0.975 ± 0.029	0.921 ± 0.065	0.935 ± 0.044
UniProt P61964	0.966 ± 0.049	0.972 ± 0.02	0.986 ± 0.033	0.929 ± 0.036	0.993 ± 0.033	1.03 ± 0.017
PAFAH1B2 (UniProt P68402)	0.829 ± 0.061	0.868 ± 0.059	0.831 ± 0.015	0.821 ± 0.069	0.833 ± 0.022	0.824 ± 0.025
OXCT1 (UniProt P55809)	0.98 ± 0.036	0.981 ± 0.043	0.955 ± 0.037	0.978 ± 0.057	0.968 ± 0.051	0.951 ± 0.05
UniProt P61160	1.01 ± 0.022	0.999 ± 0.028	0.956 ± 0.038	0.983 ± 0.047	1 ± 0.044	0.969 ± 0.033
UniProt P62701	0.875 ± 0.039	0.806 ± 0.1	0.752 ± 0.12	0.722 ± 0.11	0.641 ± 0.096	0.725 ± 0.11
B2M (UniProt P61769)	0.984 ± 0.041	0.944 ± 0.018	0.88 ± 0.022	0.977 ± 0.014	0.921 ± 0.086	0.884 ± 0.01
UniProt P63092 and related entries	1.02 ± 0.041	1.02 ± 0.019	0.968 ± 0.028	0.99 ± 0.078	0.982 ± 0.017	0.998 ± 0.033
COG7 (UniProt P83436)	0.977 ± 0.031	0.957 ± 0.037	0.961 ± 0.05	0.972 ± 0.05	0.952 ± 0.028	0.945 ± 0.036
MRPS34 (UniProt P82930)	0.995 ± 0.064	0.952 ± 0.092	0.973 ± 0.1	0.93 ± 0.18	0.94 ± 0.14	0.877 ± 0.1
UniProt P62140	1 ± 0.034	0.989 ± 0.011	1.01 ± 0.065	1 ± 0.051	1.04 ± 0.043	1.06 ± 0.03
UniProt P62306	1.02 ± 0.055	1.12 ± 0.045	1.17 ± 0.06	1.33 ± 0.07	1.3 ± 0.076	1.3 ± 0.038
UniProt P61020	0.972 ± 0.064	0.997 ± 0.056	0.964 ± 0.046	0.969 ± 0.13	0.937 ± 0.01	0.972 ± 0.072
UniProt P62314	1.02 ± 0.14	1.01 ± 0.073	1.07 ± 0.05	1.03 ± 0.25	1.12 ± 0.05	1.23 ± 0.11
CDK5 (UniProt Q00535)	1.01 ± 0.025	0.991 ± 0.028	0.992 ± 0.021	0.948 ± 0.089	0.985 ± 0.035	0.975 ± 0.044
UniProt P62913 and related entries	0.974 ± 0.12	0.925 ± 0.097	0.869 ± 0.092	0.863 ± 0.1	0.746 ± 0.12	0.913 ± 0.082
ITGA1 (UniProt P56199)	0.94 ± 0.053	0.926 ± 0.044	0.996 ± 0.061	0.989 ± 0.012	0.8962 ± 0.0068	0.915 ± 0.029
UniProt P61073 and related entries	0.966 ± 0.096	0.904 ± 0.074	0.876 ± 0.06	0.836 ± 0.12	0.837 ± 0.034	0.89 ± 0.068
